These are yes or no findings as the source states them, for the method shown. Binding seen in cells or lysates may run through a third protein. Some binding calls cover weakened binding; strength is not graded here.
Molecular target: T1, Palladin (PALLD), endogenous (human (endogenous in HeLa)) (UniProt Q8WX93)
T1 sequence: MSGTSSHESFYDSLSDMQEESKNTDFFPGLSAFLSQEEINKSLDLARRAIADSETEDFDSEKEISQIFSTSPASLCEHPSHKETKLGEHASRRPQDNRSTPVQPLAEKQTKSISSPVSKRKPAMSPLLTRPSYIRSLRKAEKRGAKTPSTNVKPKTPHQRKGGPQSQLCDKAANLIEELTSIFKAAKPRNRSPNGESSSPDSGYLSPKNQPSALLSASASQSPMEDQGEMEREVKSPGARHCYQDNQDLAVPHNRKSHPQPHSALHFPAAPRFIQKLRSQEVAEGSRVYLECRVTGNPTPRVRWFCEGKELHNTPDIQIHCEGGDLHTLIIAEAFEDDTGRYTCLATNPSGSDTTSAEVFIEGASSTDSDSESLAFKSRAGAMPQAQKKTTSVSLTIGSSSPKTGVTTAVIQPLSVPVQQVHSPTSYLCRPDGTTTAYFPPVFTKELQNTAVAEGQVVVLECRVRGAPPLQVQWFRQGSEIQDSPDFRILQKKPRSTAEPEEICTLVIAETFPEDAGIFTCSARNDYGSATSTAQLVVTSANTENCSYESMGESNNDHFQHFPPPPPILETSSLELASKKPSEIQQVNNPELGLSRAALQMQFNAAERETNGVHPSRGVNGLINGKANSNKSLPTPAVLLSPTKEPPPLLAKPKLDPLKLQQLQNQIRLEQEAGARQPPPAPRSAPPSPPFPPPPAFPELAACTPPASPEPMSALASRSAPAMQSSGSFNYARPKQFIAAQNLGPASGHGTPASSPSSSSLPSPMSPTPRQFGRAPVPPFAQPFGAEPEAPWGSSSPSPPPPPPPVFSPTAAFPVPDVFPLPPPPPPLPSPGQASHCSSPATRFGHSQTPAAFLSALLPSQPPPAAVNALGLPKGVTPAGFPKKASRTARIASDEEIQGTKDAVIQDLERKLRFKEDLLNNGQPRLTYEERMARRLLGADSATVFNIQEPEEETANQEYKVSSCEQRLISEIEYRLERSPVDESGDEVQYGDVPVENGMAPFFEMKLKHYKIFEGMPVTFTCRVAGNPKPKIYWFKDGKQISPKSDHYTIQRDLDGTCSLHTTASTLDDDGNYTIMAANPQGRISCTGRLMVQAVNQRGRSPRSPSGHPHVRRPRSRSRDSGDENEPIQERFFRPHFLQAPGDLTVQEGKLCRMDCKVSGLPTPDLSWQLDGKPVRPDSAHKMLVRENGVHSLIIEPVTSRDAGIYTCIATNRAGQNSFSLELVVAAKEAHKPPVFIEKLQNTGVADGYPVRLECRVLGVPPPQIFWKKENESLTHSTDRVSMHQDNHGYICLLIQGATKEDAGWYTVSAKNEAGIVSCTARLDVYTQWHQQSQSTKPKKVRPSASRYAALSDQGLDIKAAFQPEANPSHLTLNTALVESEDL
Assay: co-IP; endogenous proteins in HeLa lysate (mitotic HeLa cells for AKT1); 50 mM Tris-HCl pH 7.4, 150 mM NaCl, 1 mM EDTA, 1% Triton X-100; primary antibody 6 h at 4 °C, protein A/G agarose; Western blot

By UniProt entry, the sequences of proteins in these tests, tags left out.
UniProt P31749: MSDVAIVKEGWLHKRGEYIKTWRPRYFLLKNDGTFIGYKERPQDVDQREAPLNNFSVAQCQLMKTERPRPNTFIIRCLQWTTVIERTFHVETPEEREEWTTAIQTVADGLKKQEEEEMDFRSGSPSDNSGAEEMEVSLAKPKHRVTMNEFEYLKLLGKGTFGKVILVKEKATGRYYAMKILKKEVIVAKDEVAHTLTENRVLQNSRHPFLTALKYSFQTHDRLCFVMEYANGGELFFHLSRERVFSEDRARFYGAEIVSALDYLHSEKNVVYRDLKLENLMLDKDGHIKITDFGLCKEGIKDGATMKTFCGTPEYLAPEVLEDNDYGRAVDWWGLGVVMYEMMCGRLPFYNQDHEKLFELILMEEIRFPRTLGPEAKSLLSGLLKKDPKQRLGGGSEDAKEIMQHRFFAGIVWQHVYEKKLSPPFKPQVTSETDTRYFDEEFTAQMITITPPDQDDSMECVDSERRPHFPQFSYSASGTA

Question: With “AKT1 in HeLa cells (from UniProt P31749 1-480) (enzyme)” as the substance, how does the binding read?
Answer: binds

— article PMC5603589
